Test results as given in the supplement of paper PMC4604168 (melanoma cell lines).
The list shows a part of the results. Repeats are few or missing, and single values can be far off.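 Cells were imaged in 1,536-well plates, and nuclei stained with an antibody against cleaved PARP were counted against all DNA-stained nuclei to give the apoptosis fraction. Screening doses were chosen to leave most cells alive, and resting and induced cleaved-PARP levels differ strongly between cell lines.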

Key:
Experiment in all cases: cleaved PARP positive nuclei fraction relative to DMSO control; melanoma cells; higher = more apoptosis
Settings in all cases: library dose: low library concentration; 72 h
WM115 = tested on: WM115
WM1716 = tested on: WM1716
WM1745 = tested on: WM1745
WM3526 = tested on: WM3526
WM3619 = tested on: WM3619
WM451Lu = tested on: WM451Lu

Row | SMILES | cleaved PARP positive nuclei fraction (WM115) | cleaved PARP positive nuclei fraction (WM1716) | cleaved PARP positive nuclei fraction (WM1745) | cleaved PARP positive nuclei fraction (WM3526) | cleaved PARP positive nuclei fraction (WM3619) | cleaved PARP positive nuclei fraction (WM451Lu)
1 | Cc1ccc(Nc2nccc(N(C)c3ccc4c(C)n(C)nc4c3)n2)cc1S(N)(=O)=O [Pazopanib] + CCN(CC)CCNC(=O)c1c(C)[nH]c(/C=C2\C(=O)Nc3ccc(F)cc32)c1C [sunitinib] (first compound 0.4 µM, partner dose 0.4 µM) | 112% | 55.2% | 92.8% | 95% | 92.4% | 275%
2 | Cc1cn(-c2cc(NC(=O)c3ccc(C)c(Nc4nccc(-c5cccnc5)n4)c3)cc(C(F)(F)F)c2)cn1 [nilotinib] + C[C@@H](N)c1ccc(C(=O)Nc2ccnc3[nH]ccc23)cc1 [RKI983] (first compound 0.2 µM, partner dose 0.4 µM) | 109% | 136% | 116% | 317% | 83.3% | 162%
3 | CCCCCCCCCCCCCCCCCCOP(=O)([O-])OC1CC[N+](C)(C)CC1 [Perifosine] + CN1CCN(c2ccc3nc(-c4c(N)c5c(F)cccc5[nH]c4=O)[nH]c3c2)CC1 [Dovitinib] (first compound 0.4 µM, partner dose 0.1 µM) | 76.9% | 34.8% | 104% | 63% | 123% | 40%
4 | O=C(/C=C/c1cccnc1)NCCCCC1CCN(C(=O)c2ccccc2)CC1 + OCc1c[nH]c2ccccc12 [Indole-3-carbinol] (first compound 0.01 µM, partner dose 0.8 µM) | 151% | 48.6% | 90.8% | 165% | 105% | 159%
5 | CCCCCCCCCCCCCCCCCCOP(=O)([O-])OC1CC[N+](C)(C)CC1 [Perifosine] + Cc1cc(Nc2cc(N3CCN(C)CC3)nc(/C=C/c3ccccc3)n2)n[nH]1 [ENMD2076] (first compound 0.4 µM, partner dose 0.04 µM) | 140% | 139% | 299% | 44.2% | 104% | 78.1%
6 | O=c1[nH]nc(Sc2ncc([N+](=O)[O-])s2)n1-c1ccc2c(c1)OCCO2 + Clc1ccc(Nc2nnc(Cc3ccncc3)c3ccccc23)cc1 [vatalanib] (first compound 0.2 µM, partner dose 2 µM) | 141% | 77.6% | 106% | 95.6% | 101% | 70%
7 | CCCCCCCCCCCCCCCCCCOP(=O)([O-])OC1CC[N+](C)(C)CC1 [Perifosine] + CC1(C)CCC(c2ccc(Cl)cc2)=C(CN2CCN(c3ccc(C(=O)NS(=O)(=O)c4ccc(N[C@H](CCN5CCOCC5)CSc5ccccc5)c(S(=O)(=O)C(F)(F)F)c4)cc3)CC2)C1 [ABT263] (first compound 0.4 µM, partner dose 0.4 µM) | 438% | 202% | 194% | 74.8% | 102% | 226%
8 | O=c1[nH]nc(Sc2ncc([N+](=O)[O-])s2)n1-c1ccc2c(c1)OCCO2 + CO[C@@H]1[C@H](N(C)C(=O)c2ccccc2)C[C@H]2O[C@]1(C)n1c3ccccc3c3c4c(c5c6ccccc6n2c5c31)C(=O)NC4 [Midostaurin] (first compound 0.2 µM, partner dose 0.08 µM) | 149% | 177% | 96.9% | 30.6% | 92.8% | 29.9%
9 | Cc1cc(Nc2cc(N3CCN(C)CC3)nc(Sc3ccc(NC(=O)C4CC4)cc3)n2)n[nH]1 [Tozasertib] + COC(=O)c1sccc1S(=O)(=O)Nc1ccc(Nc2ccccc2)cc1OC [GSK0660] (first compound 0.006 µM, partner dose 1 µM) | 150% | 86.3% | 91.3% | 123% | 96.2% | 113%
10 | Cc1cc(Nc2cc(N3CCN(C)CC3)nc(Sc3ccc(NC(=O)C4CC4)cc3)n2)n[nH]1 [Tozasertib] + C[C@]1(O)C[C@@H](c2nc(-c3ccc4ccc(-c5ccccc5)nc4c3)c3c(N)nccn32)C1 [OSI906] (first compound 0.006 µM, partner dose 0.4 µM) | 27.8% | 244% | 109% | 44.9% | 92.5% | 193%
11 | N#CC[C@H](C1CCCC1)n1cc(-c2ncnc3[nH]ccc23)cn1 [ruxolitinib] + COCC[n+]1c2c(n(Cc3cnccn3)c1C)C(=O)c1ccccc1C2=O [YM155] (first compound 1 µM, partner dose 0.0004 µM) | 47.1% | 1330% | 89.4% | 260% | 77% | 64.2%
12 | O=C(Nc1cc(C(F)(F)F)cc(C(F)(F)F)c1)c1cc(Cl)ccc1O + CCc1ccc(CCOc2ccc(CC3SC(=O)NC3=O)cc2)nc1 [pioglitazone] (first compound 0.016 µM, partner dose 2 µM) | 71.4% | 30.1% | 104% | 69.1% | 108% | 160%
13 | O=C(Nc1cc(C(F)(F)F)cc(C(F)(F)F)c1)c1cc(Cl)ccc1O + C[C@]1(O)C[C@@H](c2nc(-c3ccc4ccc(-c5ccccc5)nc4c3)c3c(N)nccn32)C1 [OSI906] (first compound 0.016 µM, partner dose 0.4 µM) | 102% | 136% | 121% | 78.5% | 91.9% | 264%

Full records, quoted from the list.
CCCCCCCCCCCCCCCCCCOP(=O)([O-])OC1CC[N+](C)(C)CC1 [Perifosine] + Cc1cc(Nc2cc(N3CCN(C)CC3)nc(/C=C/c3ccccc3)n2)n[nH]1 [ENMD2076] (first compound 0.4 µM, partner dose 0.04 µM) as listed: cleaved PARP positive nuclei fraction (WM115): 140%; cleaved PARP positive nuclei fraction (WM1716): 139%; cleaved PARP positive nuclei fraction (WM1745): 299%; cleaved PARP positive nuclei fraction (WM3526): 44.2%; cleaved PARP positive nuclei fraction (WM3619): 104%; cleaved PARP positive nuclei fraction (WM451Lu): 78.1%
CCCCCCCCCCCCCCCCCCOP(=O)([O-])OC1CC[N+](C)(C)CC1 [Perifosine] + CC1(C)CCC(c2ccc(Cl)cc2)=C(CN2CCN(c3ccc(C(=O)NS(=O)(=O)c4ccc(N[C@H](CCN5CCOCC5)CSc5ccccc5)c(S(=O)(=O)C(F)(F)F)c4)cc3)CC2)C1 [ABT263] (first compound 0.4 µM, partner dose 0.4 µM) as listed: cleaved PARP positive nuclei fraction (WM115): 438%; cleaved PARP positive nuclei fraction (WM1716): 202%; cleaved PARP positive nuclei fraction (WM1745): 194%; cleaved PARP positive nuclei fraction (WM3526): 74.8%; cleaved PARP positive nuclei fraction (WM3619): 102%; cleaved PARP positive nuclei fraction (WM451Lu): 226%
